Measurements reported in PubChem BioAssay AID1053208 (Peter MacCallum Cancer Centre, 2014).

Assay: 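Genes whose silencing cuts survival of bone tumour cells only with doxorubicin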 (primary screen)
System: mouse osteosarcoma cells, early-passage culture from an engineered mouse model of fibroblastic bone tumour
Reagent: siRNA pool against mouse genes, 40 nM
Time to read-out: about 120 h (48 h before drug, then 72 h with drug)
Challenge: doxorubicin 100 nM for 72 h, roughly 30-40% inhibitory dose
Measured: 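Luminescent ATP signal taken as viability with or without 100 nM doxorubicin for 72 h; mean of two wells set against non-targeting siRNA and turned into robust z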
Direction: viability z-score with doxorubicin: higher = more viable cells under doxorubicin; viability z-score without drug: higher = more viable cells with knock-down alone
Rule for the call: 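a pool counts as active when its viability z-score with doxorubicin is -2 or below and its z-score without drug lies between -2 and 2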
Here is one part, drawn at random, of about 17,000 reagents. 788 of all reagents (4.7%) count as active. 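Calls rest on z-score classes alone; an extra cut-off of viability at most 70% of control was not applied to them.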 Unmarked entries are inactive. The numbers tell different reagents against one gene apart. Not all columns of the deposit are shown. No sequences are given here.

| Target gene | reagent no. | combined z-score class | viability z-score with doxorubicin | viability z-score without drug |
| --- | --- | --- | --- | --- |
| Mbd6 (methyl-CpG binding domain protein 6) | 1 | no change with or without drug | -0.45 | 0.17 |
| Tnfrsf11b | 1 | no change with or without drug | -0.9 | 0 |
| Kl (klotho) | 1 | no change with or without drug | 0.79 | 0.51 |
| Ppp1r2 (protein phosphatase 1, regulatory inhibitor subunit 2) | 1 | no change with or without drug | -0.34 | 1.52 |
| Klra3 (killer cell lectin-like receptor, subfamily A, member 3) | 1 | no change with or without drug | 0.45 | 1.69 |
| Ckap2l (cytoskeleton associated protein 2-like) | 1 | no change with or without drug | 0.34 | -0.51 |
| Pigp (phosphatidylinositol glycan anchor biosynthesis, class P) | 1 | no change with or without drug | 0 | 0.51 |
| Mapk10 (mitogen-activated protein kinase 10) | 1 | no change with or without drug | -1.35 | -0.51 |
| Mapk10 (mitogen-activated protein kinase 10) | 2 | high cell count with and without drug | 2.02 | 2.53 |
| Polk (polymerase (DNA directed), kappa) | 1 | low cell count with and without drug | -4.16 | -2.19 |
| Cfl1 (cofilin 1, non-muscle) | 1 | no change with or without drug | -0.79 | -0.34 |
| F13b (coagulation factor XIII, beta subunit) | 1 | no change with or without drug | -0.56 | -0.67 |
| Msi2 (musashi RNA-binding protein 2) | 1 | no change with or without drug | 0.45 | -1.18 |
| Actc1 (actin, alpha, cardiac muscle 1) | 1 | no change with or without drug | 0 | -0.67 |
| Ddx11 (DEAD/H box helicase 11) | 1 | no change with or without drug | 0.9 | -0.51 |
| Med17 (mediator complex subunit 17) | 1 | no change with or without drug | -1.8 | -0.84 |
| Rest (RE1-silencing transcription factor) | 1 | no change with or without drug | -0.9 | 0.17 |
| Smyd4 (SET and MYND domain containing 4) | 1 | no change with or without drug | -0.79 | -0.84 |
| Fgfr1op2 (FGFR1 oncogene partner 2) | 1 | no change with or without drug | 0.34 | 1.18 |
| Csdc2 (cold shock domain containing C2, RNA binding) | 1 | no change with or without drug | -0.67 | -1.01 |
| Tnn (tenascin N) | 1 | low cell count with doxorubicin only (active) | -2.7 | 0.51 |
| Ifitm7 (interferon induced transmembrane protein 7) | 1 | no change with or without drug | -0.9 | 0.84 |
| Pcdhgb6 (protocadherin gamma subfamily B, 6) | 1 | no change with or without drug | -0.45 | 0.84 |
| Slc2a6 | 1 | no change with or without drug | -0.22 | -0.51 |
| Slc26a8 | 1 | no change with or without drug | 1.12 | 1.52 |
| Cdh11 (cadherin 11) | 1 | low cell count with doxorubicin only (active) | -2.25 | -0.67 |
| Hsd17b2 (hydroxysteroid (17-beta) dehydrogenase 2) | 1 | no change with or without drug | -1.01 | -1.69 |
| Slc25a3 | 1 | no change with or without drug | -1.91 | 1.01 |
| Chid1 (chitinase domain containing 1) | 1 | no change with or without drug | 1.8 | 0.51 |
| Tmem134 (transmembrane protein 134) | 1 | no change with or without drug | 1.91 | -0.51 |
| Arhgef40 (Rho guanine nucleotide exchange factor 40) | 1 | no change with or without drug | -1.46 | 0.84 |
| Plac9 (placenta specific 9) | 1 | low cell count with doxorubicin only (active) | -2.7 | -0.51 |
| Pde6d (phosphodiesterase 6D, cGMP-specific, rod, delta) | 1 | no change with or without drug | 0.79 | -0.84 |
| Pcyox1 (prenylcysteine oxidase 1) | 1 | high cell count without drug only | 1.91 | 2.02 |
| Rabif (RAB interacting factor) | 1 | no change with or without drug | -0.34 | 0.17 |
| Prl6a1 (prolactin family 6, subfamily a, member 1) | 1 | no change with or without drug | 0 | 1.52 |
| Defb9 (defensin beta 9) | 1 | no change with or without drug | 0.56 | 0.84 |
| Tuba1a (tubulin, alpha 1A) | 1 | no change with or without drug | 0.67 | -1.52 |
| Or52e15 (olfactory receptor family 52 subfamily E member 15) | 1 | no change with or without drug | -1.12 | 0.17 |
| Pcolce2 (procollagen C-endopeptidase enhancer 2) | 1 | no change with or without drug | 0.22 | 0.84 |
| Snhg11 (small nucleolar RNA host gene 11) | 1 | no change with or without drug | 0.34 | -0.67 |
| Mocs1 (molybdenum cofactor synthesis 1) | 1 | no change with or without drug | 1.35 | 0.51 |
| Atf4 (activating transcription factor 4) | 1 | low cell count with doxorubicin only (active) | -2.47 | -0.84 |
| Zgpat (zinc finger, CCCH-type with G patch domain) | 1 | no change with or without drug | 0 | 0.17 |
| 3110070M22Rik (RIKEN cDNA 3110070M22 gene) | 1 | no change with or without drug | 1.12 | 0 |
| Ppp5c (protein phosphatase 5, catalytic subunit) | 1 | high cell count with doxorubicin only | 2.47 | 1.18 |
| Clstn2 (calsyntenin 2) | 1 | no change with or without drug | 0.22 | -0.84 |
| Msantd1 (Myb/SANT-like DNA-binding domain containing 1) | 1 | no change with or without drug | 0.67 | 1.01 |
| Tnfrsf9 (tumor necrosis factor receptor superfamily, member 9) | 1 | no change with or without drug | 0.9 | 0.67 |
| Dennd5b (DENN domain containing 5B) | 1 | no change with or without drug | 0 | 0.84 |

Active calls, of those listed so far:
| Target gene | reagent no. | combined z-score class | viability z-score with doxorubicin | viability z-score without drug |
| --- | --- | --- | --- | --- |
| Tnn (tenascin N) | 1 | low cell count with doxorubicin only (active) | -2.7 | 0.51 |
| Cdh11 (cadherin 11) | 1 | low cell count with doxorubicin only (active) | -2.25 | -0.67 |
| Plac9 (placenta specific 9) | 1 | low cell count with doxorubicin only (active) | -2.7 | -0.51 |
| Atf4 (activating transcription factor 4) | 1 | low cell count with doxorubicin only (active) | -2.47 | -0.84 |
